Laboratory results: PubChem BioAssay AID330 (DTP/NCI, 2004)
The list does not hold the whole screen: it is rich in T/C values a quarter to a half above the control, in often repeated tests (any T/C) and in doses without a T/C. Further doses and runs are listed elsewhere. T/C gives the treated animals as a percentage of the vehicle group. Some entries give survivors of the animals treated and no T/C: the source files T/C as zero there, which appears to mark a toxic dose or a test without result, not a measured value. Some doses without a T/C left all or most animals alive at the check, yet need not have been tolerated: survival well below the control is almost never listed, so the zero probably covers shortened survival too. Counts of survivors are from the toxicity check (mostly the fifth day) where no day follows; animals may have died later. Schedules are NCI's codes, taken here to give the interval after Q, in days (D) or hours (H), and the number of doses after X. Some doses were run more than once; the results are listed from low to high. Some structures stand for samples that the source files as different forms (salt, stereo form or complex); doses refer to the form tested. Counts like (3×) give the number of equal values in this list. Where survival is the endpoint, the PubChem record calls one and a half times the control and up active, and a quarter to a half above the control has no call in these data; cut-offs in other NCI protocols can differ. Some T/C values carry the count of animals alive at the toxicity check (mostly the fifth day); where none is given, no animal had died by that day.

Tested on: P388 leukemia ip, CD2F1 mice, survival T/C
Assay: NCI In Vivo Anticancer Drug Screen. Data for tumor model P388 Leukemia (intraperitoneal) in CD2F1 (CDF1) mice
Settings: T/C endpoint: median survival time, higher T/C = longer survival
[1] = dose: 200.0 mg/kg/injection, schedule: Q01DX009 (ip), vehicle: saline
[2] = dose: 200.0 mg/kg/injection, schedule: Q01DX005 (ip), vehicle: saline with Tween-80
[3] = dose: 200.0 mg/kg/injection, schedule: Q01DX009 (ip), vehicle: saline with Tween-80
[4] = dose: 25.0 mg/kg/injection, schedule: Q01DX009 (ip), vehicle: saline
[5] = dose: 50.0 mg/kg/injection, schedule: Q01DX009 (ip), vehicle: saline
[6] = dose: 6.25 mg/kg/injection, schedule: Q01DX009 (ip), vehicle: saline
[7] = dose: 12.5 mg/kg/injection, schedule: Q01DX009 (ip), vehicle: saline
[8] = dose: 100.0 mg/kg/injection, schedule: Q01DX009 (ip), vehicle: saline

`O=C1c2cccc(NCCNCCO)c2C(=O)c2cccc(NCCNCCO)c21` was tested, and the T/C (dose: 5.0 mg/kg/injection, schedule: Q01DX009 (ip), vehicle: acid diluted with saline) was 139 % of control, the T/C (dose: 10.0 mg/kg/injection, schedule: Q01DX009 (ip), vehicle: acid diluted with saline) was 141 % of control [5 of 6 alive] and the survivor count (dose: 20.0 mg/kg/injection, schedule: Q01DX009 (ip), vehicle: acid diluted with saline) was 4 of 6. For the same molecule, the survivor count (dose: 40.0 mg/kg/injection, schedule: Q01DX009 (ip), vehicle: acid diluted with saline) was 3 of 6, the survivor count (dose: 80.0 mg/kg/injection, schedule: Q01DX009 (ip), vehicle: acid diluted with saline) was 3 of 6 and the survivor count (dose: 160.0 mg/kg/injection, schedule: Q01DX009 (ip), vehicle: acid diluted with saline) was 3 of 6.

`CC(C)(C)C(=O)OC/C=C\COC(=O)c1ccccc1` was tested, and the T/C (dose: 200.0 mg/kg/injection, schedule: Q01DX009 (ip), vehicle: Klucel (hydroxypropylcellulose) (HPC)) was 125 % of control.

In the case of `CCCCCCCCCCOC(=O)CC(C)=O.CCCCCCCCCCOC(=O)CC(C)=O.[Ni+2]`, the survivor count [1] is reported as 1 of 6.

`CCOC(=O)C(Cc1ccc(N(CCCl)CCCl)cc1)NC(=O)C(Cc1ccc(N)cc1)NC(C)=O` (configuration not stated) was tested, and the survivor count (dose: 12.5 mg/kg/injection, schedule: Q01DX005 (ip), vehicle: saline with Tween-80) was 6 of 6, the survivor count (dose: 25.0 mg/kg/injection, schedule: Q01DX005 (ip), vehicle: saline with Tween-80) was 6 of 6 and the survivor count (dose: 50.0 mg/kg/injection, schedule: Q01DX005 (ip), vehicle: saline with Tween-80) was 6 of 6. For the same molecule, the survivor count (dose: 100.0 mg/kg/injection, schedule: Q01DX005 (ip), vehicle: saline with Tween-80) was 6 of 6, the T/C [2] was 135 % of control and the survivor count [2] was 6 of 6.

For `COC1C(CO)OC(n2cnc3c(=S)nc(N)[nH]c32)C1O` (configuration not stated), the T/C [3] was 136 % of control, the T/C (dose: 400.0 mg/kg/injection, schedule: Q01DX009 (ip), vehicle: saline with Tween-80) was 131 % of control and the T/C (dose: 400.0 mg/kg/injection, schedule: Q04DX003 (ip), vehicle: saline with Tween-80) was 131 % of control. The T/C (dose: 600.0 mg/kg/injection, schedule: Q04DX003 (ip), vehicle: saline with Tween-80) was 131 % of control.

With `COc1cc(C=C2C(=O)C=CC2=O)ccc1OCc1ccccc1` the survivor count (dose: 50.0 mg/kg/injection, schedule: Q04DX002 (ip), vehicle: saline with Tween-80) was 0 of 6 and the survivor count (dose: 100.0 mg/kg/injection, schedule: Q04DX002 (ip), vehicle: saline with Tween-80) was 0 of 6.

With `Cc1cccnc1NC1OC(=O)c2ccccc21` (configuration not stated) the survivor count [3] was 3 of 6.

`COc1cc2c(cc1OC)C(OC)N(C)c1c-2ccc2cc3c(cc12)OCO3` (configuration not stated) was tested, and the T/C (dose: 3.13 mg/kg/injection, schedule: Q01DX009 (ip), vehicle: other) was 134 % of control, the T/C (dose: 4.0 mg/kg/injection, schedule: Q01DX009 (ip), vehicle: saline) was 126 % of control and the T/C (dose: 4.0 mg/kg/injection, schedule: Q01DX009 (ip), vehicle: water) was 125 % of control [9 of 10 alive]. For the same molecule, the T/C (dose: 6.25 mg/kg/injection, schedule: Q01DX009 (ip), vehicle: other) was 140 % of control, the T/C (dose: 8.0 mg/kg/injection, schedule: Q01DX009 (ip), vehicle: saline) was 130 % of control and the T/C (dose: 8.0 mg/kg/injection, schedule: Q01DX009 (ip), vehicle: water) was 128 % of control. For the same molecule, the T/C (dose: 8.0 mg/kg/injection, schedule: Q03HX008 (ip), vehicle: water) was 136 % of control [9 of 10 alive], the T/C (dose: 12.5 mg/kg/injection, schedule: Q01DX009 (ip), vehicle: other) was 149 % of control and the T/C (dose: 16.0 mg/kg/injection, schedule: Q01DX009 (ip), vehicle: saline) was 136 % of control. For the same molecule, the T/C (dose: 16.0 mg/kg/injection, schedule: Q01DX009 (ip), vehicle: water) was 134 % of control [9 of 10 alive], the survivor count (dose: 16.0 mg/kg/injection, schedule: Q03HX008 (ip), vehicle: water) was 0 of 10 and the survivor count (dose: 25.0 mg/kg/injection, schedule: Q01DX009 (ip), vehicle: other) was 6 of 6. For the same molecule, the survivor count (dose: 32.0 mg/kg/injection, schedule: Q01DX009 (ip), vehicle: water) was 9 of 10, the T/C (dose: 44.0 mg/kg/injection, schedule: Q04DX003 (ip), vehicle: saline with Tween-80) was 140 % of control (2×) and the survivor count (dose: 50.0 mg/kg/injection, schedule: Q01DX009 (ip), vehicle: other) was 2 of 6 and 3 of 6. For the same molecule, the survivor count (dose: 64.0 mg/kg/injection, schedule: Q01DX009 (ip), vehicle: saline) was 10 of 10, the survivor count (dose: 64.0 mg/kg/injection, schedule: Q01DX009 (ip), vehicle: water) was 0 of 10 and the survivor count (dose: 64.0 mg/kg/injection, schedule: Q01DX009 (sc), vehicle: water) was 10 of 10. The survivor count (dose: 100.0 mg/kg/injection, schedule: Q01DX009 (ip), vehicle: other) was 0 of 6, the survivor count (dose: 128.0 mg/kg/injection, schedule: Q01DX001 (ip), vehicle: water) was 1 of 10 and the survivor count (dose: 128.0 mg/kg/injection, schedule: Q08DX002 (ip), vehicle: water) was 1 of 10. The survivor count (dose: 150.0 mg/kg/injection, schedule: Q01DX009 (ip), vehicle: saline with Tween-80) was 6 of 6 (2×), the T/C (dose: 150.0 mg/kg/injection, schedule: Q04DX003 (ip), vehicle: saline with Tween-80) was 136 % of control (2×) and the survivor count (dose: 200.0 mg/kg/injection, schedule: Q01DX009 (ip), vehicle: other) was 0 of 6. The survivor count (dose: 400.0 mg/kg/injection, schedule: Q01DX009 (ip), vehicle: other) was 0 of 6.

In the case of `Nc1nc2nc3c(nc2c(=O)[nH]1)C(=O)N(c1ccc(C(=O)O)cc1)C3`, the survivor count (dose: 50.0 mg/kg/injection, schedule: Q04DX003 (ip), vehicle: saline with Tween-80) is reported as 6 of 6, the survivor count (dose: 100.0 mg/kg/injection, schedule: Q04DX003 (ip), vehicle: saline with Tween-80) is reported as 5 of 6 and the survivor count (dose: 200.0 mg/kg/injection, schedule: Q04DX003 (ip), vehicle: saline with Tween-80) is reported as 3 of 6.

For `[CH3][Sn]([CH3])([N]=C=S)[N]=C=S`, the T/C [4] was 135 % of control, the T/C [5] was 138 % of control [5 of 6 alive] and the survivor count (dose: 100.0 mg/kg/injection, schedule: Q01DX009 (ip), vehicle: suspension in saline) was 3 of 6. For the same molecule, the survivor count (dose: 200.0 mg/kg/injection, schedule: Q01DX009 (ip), vehicle: suspension in saline) was 1 of 6.

`CCOC(=O)C1C(O)CC2c3ccccc3-c3ccccc3C21` (configuration not stated) was tested, and the survivor count (dose: 240.0 mg/kg/injection, schedule: Q01DX005 (ip), vehicle: saline with Tween-80) was 6 of 6.

`O=[N+]([O-])OI(c1ccccc1)c1ccccc1` was tested, and the survivor count (dose: 3.12 mg/kg/injection, schedule: Q01DX009 (ip), vehicle: saline) was 6 of 6, the T/C [6] was 105, 109, 116 % of control and the survivor count [6] was 2 of 6. For the same molecule, the T/C [7] was 98 and 124 % of control, the survivor count [7] was 0 of 6 and 5 of 6 and the survivor count [4] was 0 of 6. The survivor count [5] was 0 of 6, the survivor count [8] was 0 of 6 and the survivor count [1] was 0 of 6.

For `CCOC(=O)CC1(O)CCC2C3CC=C4CC(OC5CCCCO5)CCC4(C)C3CCC21C` (configuration not stated), the survivor count (dose: 25.0 mg/kg/injection, schedule: Q01DX009 (ip), vehicle: saline with Tween-80) was 6 of 6 and the survivor count (dose: 50.0 mg/kg/injection, schedule: Q01DX009 (ip), vehicle: saline with Tween-80) was 6 of 6.

`CCCCCCCCCCCCCCCCCC(=O)OCCN(C=O)C[n+]1ccccc1` was tested, and the survivor count (dose: 400.0 mg/kg/injection, schedule: Q04DX002 (ip), vehicle: saline) was 3 of 6.

`CCOP(=O)(O)C1CCCC(C)[N-]1.CCOP(=O)(O)C1CCCC(C)[N-]1.CCOP(=O)(O)C1CCCC(C)[N-]1.[Cr+3]` (configuration not stated) was tested, and the survivor count (dose: 400.0 mg/kg/injection, schedule: Q04DX003 (ip), vehicle: Klucel (hydroxypropylcellulose) (HPC)) was 6 of 6.

For `C=CC[n+]1ccc(-c2cc[n+](CC=C)cc2)cc1`, the survivor count [4] was 4 of 6 and 5 of 6, the survivor count [5] was 0 of 6 and the survivor count [8] was 0 of 6. For the same molecule, the survivor count [1] was 0 of 6.

In the case of `CC(=O)OC1OC(COS(C)(=O)=O)C(OC(C)=O)C(OS(C)(=O)=O)C1OC(C)=O` (configuration not stated), the survivor count [1] is reported as 6 of 6.
